In patent US8895574B2, “Benzyloxypyrimidine derivative, agricultural/ horticultural insecticide comprising derivative and method for using same” (Nihon Nohyaku Co., Ltd., priority 2010, dated 2014):
Some of these results come from one statement about several compounds together. For some assays here: For at least one compound, name, drawing or mass did not settle the structure. Some compounds share one range, which may span the group rather than tell each member.

Tested on: cattle tick (Haemaphysalis longicornis)
Assay: Acaricidal effect on cattle tick, absorbent cotton in glass bottle
Assay type: in vivo
Details: 100 ppm drug solution, 2 ml; 4 days after inoculation
Protocol: Acaricidal Effect on Cattle Tick (Haemaphysalis longicornis)
An absorbent cotton was placed on the basement of a glass bottle (diameter 3 cm×height 4.5 cm). The pyrimidine derivative of the present invention represented by the formula (I) or a salt thereof was dispersed in water to give a diluted drug solution (100 ppm). The drug solution (2 ml) was added dropwise. Cattle ticks were inoculated by 5 each, and the bottle was capped with a mesh. After 4 days from the inoculation, the dead ticks and live ticks were counted, and the corrected mortality was calculated by the following formula. corrected mortality (%)=(survival rate in untreated group−survival rate in treated group)/(survival rate in untreated group)×100 Diagnostic criteria . . . as defined in Experimental Example 1

Q: How did the “acaricidal effect against cattle tick (corrected mortality, judged by criterion)” value turn out when `COc1cncnc1OCc1ccc(F)cc1` [1-190] was run?
A: Its value is “D (control efficacy 79%-50%)”.

Tested on: brown rice planthopper (Nilaparvata lugens)
Assay: Insecticidal effect on brown rice planthopper, rice seedling immersion
Assay type: in vivo
Details: 500 ppm liquid chemical; rice seedlings immersed 30 seconds; third-instar nymphs; eight days after inoculation

Q: Which “insecticidal effect against brown rice planthopper (mortality, judged by criterion)” value does the source give for `CCC(C)Oc1cncnc1OCc1ccc(OC(F)(F)F)c(F)c1` (racemic) [3-136] here?
A: The value was “A (control efficacy 100%)”.

Q: Which “insecticidal effect against brown rice planthopper (mortality, judged by criterion)” value does the source give for `CC(C)Oc1cncnc1OCc1ccc(C(C)(C)C)cc1` [1-4] here?
A: Its value is “A (control efficacy 100%)”.

Q: For `COc1cncnc1OC(C)(C)c1ccc(C(C)(C)C)cc1` [1-20], which “insecticidal effect against brown rice planthopper (mortality, judged by criterion)” value is on record?
A: Its value is “A (control efficacy 100%)”.

Q: Which “insecticidal effect against brown rice planthopper (mortality, judged by criterion)” value does the source give for `CC(C)c1ccc(COc2ncncc2OCC2CC2)cc1` [1-26] here?
A: The value was “A (control efficacy 100%)”.

Q: With `COCOc1cncnc1OCc1ccc(CC(C)C)cc1` [1-40] as the compound, how does the “insecticidal effect against brown rice planthopper (mortality, judged by criterion)” value read?
A: Its value is “A (control efficacy 100%)”.

Q: For `CCCOc1cncnc1OCc1ccc([Si](C)(C)C)cc1` [1-64], which “insecticidal effect against brown rice planthopper (mortality, judged by criterion)” value is on record?
A: Its value is “A (control efficacy 100%)”.

Q: Which “insecticidal effect against brown rice planthopper (mortality, judged by criterion)” value does the source give for `COc1cncnc1OCc1cccc(C(F)(F)F)c1` [1-98] here?
A: Its value is “A (control efficacy 100%)”.

Q: How did the “insecticidal effect against brown rice planthopper (mortality, judged by criterion)” value turn out when `COc1cncnc1OCc1ccccc1C(F)(F)F` [1-99] was run?
A: Its value is “A (control efficacy 100%)”.

Q: Which “insecticidal effect against brown rice planthopper (mortality, judged by criterion)” value does the source give for `FC(F)(F)Sc1ccc(COc2ncncc2OC/C=C\Cl)cc1` [1-146] here?
A: Its value is “A (control efficacy 100%)”.

Q: How did the “insecticidal effect against brown rice planthopper (mortality, judged by criterion)” value turn out when `CCCOc1cncnc1OCc1ccc(F)cc1` [1-192] was run?
A: Its value is “A (control efficacy 100%)”.

Q: How did the “insecticidal effect against brown rice planthopper (mortality, judged by criterion)” value turn out when `Fc1ccc(COc2ncncc2OCC2CC2)cc1` [1-195] was run?
A: Its value is “A (control efficacy 100%)”.

Q: How did the “insecticidal effect against brown rice planthopper (mortality, judged by criterion)” value turn out when `COc1cncnc1OCc1ccc(OC(F)F)cc1` [1-240] was run?
A: Its value is “A (control efficacy 100%)”.

Q: Which “insecticidal effect against brown rice planthopper (mortality, judged by criterion)” value does the source give for `Fc1cc(C(F)(F)F)ccc1COc1ncncc1Oc1ccccc1` [1-261] here?
A: The value was “A (control efficacy 100%)”.

Q: With `CCC(C)Oc1cncnc1OCc1ccc(OCC(F)(F)F)cc1F` (centres unmarked) [1-282] as the compound, how does the “insecticidal effect against brown rice planthopper (mortality, judged by criterion)” value read?
A: The value was “A (control efficacy 100%)”.

Q: `CC[C@@H](C)Oc1cncnc1OCc1ccc(C(F)(F)F)cc1` [1-289] was tested. Which “insecticidal effect against brown rice planthopper (mortality, judged by criterion)” value did it give?
A: Its value is “A (control efficacy 100%)”.

Q: How did the “insecticidal effect against brown rice planthopper (mortality, judged by criterion)” value turn out when `CC[C@H](C)Oc1cncnc1OCc1ccc(C(F)(F)F)cc1` [1-290] was run?
A: Its value is “A (control efficacy 100%)”.

Q: How did the “insecticidal effect against brown rice planthopper (mortality, judged by criterion)” value turn out when `COc1cncnc1OCc1ccc(-n2nc(C)cc2C(F)(F)F)cc1` [2-2] was run?
A: Its value is “A (control efficacy 100%)”.

Q: How did the “insecticidal effect against brown rice planthopper (mortality, judged by criterion)” value turn out when `COc1cncnc1OCc1ccc(-n2nc(C(F)(F)F)cc2C)cc1` [2-3] was run?
A: Its value is “A (control efficacy 100%)”.

Q: Which “insecticidal effect against brown rice planthopper (mortality, judged by criterion)” value does the source give for `CCCOc1cncnc1OCc1ccc(C2CC2(Cl)Cl)cc1` (centres unmarked) [2-6] here?
A: The value was “A (control efficacy 100%)”.

Q: With `CCCCCOc1cncnc1OCc1ccc(C(C)(C)C)cc1` [3-3] as the compound, how does the “insecticidal effect against brown rice planthopper (mortality, judged by criterion)” value read?
A: Its value is “A (control efficacy 100%)”.

Q: `CC(C)(C)c1ccc(COc2ncncc2OC2CCCO2)cc1` (centres unmarked) [3-8] was tested. Which “insecticidal effect against brown rice planthopper (mortality, judged by criterion)” value did it give?
A: The value was “A (control efficacy 100%)”.

Q: For `C[Si](C)(C)c1ccc(COc2ncncc2OCc2ccccn2)cc1` [3-48], which “insecticidal effect against brown rice planthopper (mortality, judged by criterion)” value is on record?
A: The value was “A (control efficacy 100%)”.

Q: For `CS(=O)(=O)COc1cncnc1OCc1ccc(C(F)(F)F)cc1` [3-63], which “insecticidal effect against brown rice planthopper (mortality, judged by criterion)” value is on record?
A: The value was “A (control efficacy 100%)”.

Q: With `FC(F)(F)c1ccc(COc2ncncc2OC2CCOC2)cc1` (centres unmarked) [3-79] as the compound, how does the “insecticidal effect against brown rice planthopper (mortality, judged by criterion)” value read?
A: Its value is “A (control efficacy 100%)”.

Q: For `Fc1ccc(COc2cncnc2OCc2ccc(C(F)(F)F)cc2)cc1` [3-89], which “insecticidal effect against brown rice planthopper (mortality, judged by criterion)” value is on record?
A: The value was “A (control efficacy 100%)”.

Q: For `Fc1cccc(F)c1COc1cncnc1OCc1ccc(C(F)(F)F)cc1` [3-90], which “insecticidal effect against brown rice planthopper (mortality, judged by criterion)” value is on record?
A: Its value is “A (control efficacy 100%)”.

Q: Which “insecticidal effect against brown rice planthopper (mortality, judged by criterion)” value does the source give for `Fc1cccc(Oc2cncnc2OCc2ccc(C(F)(F)F)cc2)c1` [3-92] here?
A: Its value is “A (control efficacy 100%)”.

Q: Which “insecticidal effect against brown rice planthopper (mortality, judged by criterion)” value does the source give for `Fc1ccc(Oc2cncnc2OCc2ccc(C(F)(F)F)cc2)c(F)c1` [3-99] here?
A: Its value is “A (control efficacy 100%)”.

Q: How did the “insecticidal effect against brown rice planthopper (mortality, judged by criterion)” value turn out when `FC(F)(F)c1ccc(COc2ncncc2Oc2ncc(C(F)(F)F)cc2Cl)cc1` [3-102] was run?
A: The value was “A (control efficacy 100%)”.

Q: For `CCCCOc1cncnc1OCc1ccc(OC(F)(F)F)cc1` [3-123], which “insecticidal effect against brown rice planthopper (mortality, judged by criterion)” value is on record?
A: The value was “A (control efficacy 100%)”.

Q: For `FC(F)(F)Oc1ccc(COc2ncncc2OC2CCCCC2)cc1` [3-126], which “insecticidal effect against brown rice planthopper (mortality, judged by criterion)” value is on record?
A: Its value is “A (control efficacy 100%)”.

Q: For `FC(F)(F)Oc1ccc(COc2ncncc2OCc2ccco2)cc1` [3-128], which “insecticidal effect against brown rice planthopper (mortality, judged by criterion)” value is on record?
A: The value was “A (control efficacy 100%)”.

Q: For `Fc1ccccc1Oc1cncnc1OCc1ccc(OC(F)(F)F)cc1` [3-132], which “insecticidal effect against brown rice planthopper (mortality, judged by criterion)” value is on record?
A: The value was “A (control efficacy 100%)”.

Q: Which “insecticidal effect against brown rice planthopper (mortality, judged by criterion)” value does the source give for `CC(C)COc1cncnc1OCc1ccc(F)cc1F` [3-156] here?
A: The value was “A (control efficacy 100%)”.

Q: For `FC(F)(F)C(Oc1ncncc1Oc1ccccc1)c1ccccc1` (centres unmarked) [3-175], which “insecticidal effect against brown rice planthopper (mortality, judged by criterion)” value is on record?
A: Its value is “A (control efficacy 100%)”.

Q: For `CC(C)COc1cncnc1OCc1ccc(Cl)cc1` [3-181], which “insecticidal effect against brown rice planthopper (mortality, judged by criterion)” value is on record?
A: Its value is “A (control efficacy 100%)”.

Q: For `FC(F)(F)C(Oc1ncncc1Oc1ccccc1)c1ccc(Cl)cc1` (centres unmarked) [3-186], which “insecticidal effect against brown rice planthopper (mortality, judged by criterion)” value is on record?
A: The value was “A (control efficacy 100%)”.

Q: `CCCOc1cncnc1OCc1ccc(OCC(F)(F)F)cc1` [3-211] was tested. Which “insecticidal effect against brown rice planthopper (mortality, judged by criterion)” value did it give?
A: The value was “A (control efficacy 100%)”.

Q: How did the “insecticidal effect against brown rice planthopper (mortality, judged by criterion)” value turn out when `CC(C)COc1cncnc1OCc1ccc(C(C)(C)C)cc1.O=C(O)C(=O)O` [4-12] was run?
A: The value was “A (control efficacy 100%)”.

Tested on: green peach aphid (Myzus persicae)
Assay: Control efficacy against green peach aphid, foliar spray on potted Chinese cabbage
Assay type: in vivo
Details: 500 ppm liquid chemical sprayed on stalks and leaves of Chinese cabbage; six days after spraying

Q: How did the “insecticidal effect against green peach aphid (control efficacy, judged by criterion)” value turn out when `COc1cncnc1OCc1ccc(-n2nc(C)cc2C(F)(F)F)cc1` [2-2] was run?
A: The value was “D (control efficacy 79%-50%)”.

Q: Which “insecticidal effect against green peach aphid (control efficacy, judged by criterion)” value does the source give for `CC(C)COc1cncnc1OCc1ccc(OCC(F)(F)F)cc1` [3-213] here?
A: The value was “D (control efficacy 79%-50%)”.

Q: With `CCC(C)Oc1cncnc1OCc1ccc(OC(C)C)cc1` (centres unmarked) [3-217] as the compound, how does the “insecticidal effect against green peach aphid (control efficacy, judged by criterion)” value read?
A: The value was “D (control efficacy 79%-50%)”.

Q: `CC(C)COc1cncnc1OCc1ccc(C2CC2)cc1` [3-223] was tested. Which “insecticidal effect against green peach aphid (control efficacy, judged by criterion)” value did it give?
A: Its value is “D (control efficacy 79%-50%)”.

Q: For `CCC(C)Oc1cncnc1OCc1ccc(C2CC2)cc1` (centres unmarked) [3-224], which “insecticidal effect against green peach aphid (control efficacy, judged by criterion)” value is on record?
A: Its value is “D (control efficacy 79%-50%)”.

Q: How did the “insecticidal effect against green peach aphid (control efficacy, judged by criterion)” value turn out when `CCC(C)Oc1cncnc1OCc1ccc(COCC(F)(F)F)cc1` (centres unmarked) [3-235] was run?
A: The value was “D (control efficacy 79%-50%)”.

Q: For `CC(C)COc1cncnc1OCc1ccc(C(C)(C)C)cc1.Cl` [4-10], which “insecticidal effect against green peach aphid (control efficacy, judged by criterion)” value is on record?
A: Its value is “D (control efficacy 79%-50%)”.
